We go through one molecule from patent publication US20230183237A1, “COMPETITIVE AND NONCOMPETITIVE INHIBITORS OF THE MUSCARINIC ACETYLCHOLINE RECEPTOR M5” (Vanderbilt University, priority 2020, published 2023).

Amino acid sequences for entries named in this document (tags omitted).
UniProt P08912, whole entry: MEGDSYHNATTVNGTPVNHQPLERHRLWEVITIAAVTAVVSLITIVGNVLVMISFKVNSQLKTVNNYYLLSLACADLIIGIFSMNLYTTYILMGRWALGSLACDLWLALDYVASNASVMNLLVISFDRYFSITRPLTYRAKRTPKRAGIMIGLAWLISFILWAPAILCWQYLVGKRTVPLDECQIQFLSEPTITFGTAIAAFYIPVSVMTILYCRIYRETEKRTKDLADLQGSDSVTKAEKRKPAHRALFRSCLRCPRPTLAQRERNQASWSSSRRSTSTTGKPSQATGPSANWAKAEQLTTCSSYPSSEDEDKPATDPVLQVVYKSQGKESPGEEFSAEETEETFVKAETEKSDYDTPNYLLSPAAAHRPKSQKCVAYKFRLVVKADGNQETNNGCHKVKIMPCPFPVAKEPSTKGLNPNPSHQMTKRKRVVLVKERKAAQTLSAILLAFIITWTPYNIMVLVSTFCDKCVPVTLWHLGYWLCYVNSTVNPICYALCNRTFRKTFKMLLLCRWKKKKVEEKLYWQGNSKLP

Structures were worked out from names or drawings and are uncertain.

For this experiment, the target named is hM5 (Homo sapiens, UniProt P08912). In words: Calcium mobilization concentration-response (IC50 vs EC80 acetylcholine), CHO hM5. The experiment is classed as cell-based. The following applies: CELL LINE hM5.

One may read the IC50 as the concentration that gives 50% inhibition. For the molecule `Cc1nc2ncnn2cc1C1CCN(S(=O)(=O)c2cnn(C)c2C)CC1`, the IC50 (calcium mobilization, EC80 acetylcholine addition) stood at 63 nM. Besides, the “EC50 MIN (%)” value (minimum response, percent of maximum acetylcholine response) is recorded as 2%.
